Columns and labels:
[1] = tested on: CitO-R97A; format: binding; conditions: ITC, ni = no interaction
[2] = tested on: CitO-H191A; format: binding; conditions: ITC, ni = no interaction

O=C(O)CC(O)(CC(=O)O)C(=O)O [citrate]
ni^*: TΔS [1] | ΔG [1] | ΔH [1] | TΔS [2] | ΔG [2] | ΔH [2]

Source: PMC4746285, “Functional Analysis of the Citrate Activator CitO from Enterococcus faecalis Implicates a Divalent Metal in Ligand Binding” (Frontiers in Microbiology, 2016)
